Assay results as given in patent US20150140121A1, “Compositions and Methods for Tight Junction Modulation” (Lankenau Institute for Medical Research, priority 2012, published 2015).
Some entries share one result that the patent states for a list of compounds. At least one structure is not confirmed: it was looked up by name or label, or the drawing left a doubt.

System: LLC-PK1 cell layers
Assay: Transepithelial electrical resistance (Rt) across LLC-PK1 cell layers
Type: cell-based, porcine
Details: 100 μM zinc alone (maximally effective concentration); LLC-PK1 renal epithelial cell layers; 12 cell layers
Protocol: LLC-PK1 is a porcine cell line model of the kidney proximal tubule.
The effect of zinc and/or quercetin on the electrical resistance across LLC-PK1 renal epithelial cell layers was tested. Briefly, LLC-PK1 renal epithelial cell layers were treated with either 100 μM zinc alone, 400 μM quercetin alone; or both agents together. The stimulation of transepithelial electrical resistance (Rt) by maximally effective concentrations of zinc alone and quercetin alone was in the range of 50-60% of control levels. […] The results shown in FIG. 8 represent the mean+/− standard error for 12 cell layers. P values are for one-sided Student's t tests.

[Zn] [zinc] was tested, and the “stimulation of transepithelial electrical resistance (Rt)” value was 50-60 % of control levels.
